# Measured values: PMC7862700
# Protein sequences, listed by entry. Tags and fused reporters are not part of them. Lines headed by an entry give the natural chain unless they say otherwise; changes in a name come on top.
# UniProt O43186: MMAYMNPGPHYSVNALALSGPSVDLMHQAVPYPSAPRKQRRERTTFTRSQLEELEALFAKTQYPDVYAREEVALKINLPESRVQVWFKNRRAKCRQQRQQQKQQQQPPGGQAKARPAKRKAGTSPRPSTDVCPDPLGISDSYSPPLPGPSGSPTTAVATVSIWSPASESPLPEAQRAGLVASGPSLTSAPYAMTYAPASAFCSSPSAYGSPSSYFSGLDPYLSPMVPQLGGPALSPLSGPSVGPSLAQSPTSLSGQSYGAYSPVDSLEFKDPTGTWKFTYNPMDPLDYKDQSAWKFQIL
# The list shows a part of the results, in another mix than the full data. At the low end of the ranking the order means little.
# Assays:
# Test in all cases: DAPPL (digital affinity profiling via proximity ligation, sequencing)
# Details in all cases: 10 mM Tris-HCl pH 7.5, 50 mM NaCl, 1 mM DTT, 4% glycerol, room temperature, 30 min; GST-TFs on glutathione beads, 16-mer random dsDNA library, 0.1% …; high values mean tight binding; double strand, one strand shown; scale: fold enrichment (6-mer frequency, TF over GST control)
# CRX = CRX (UniProt O43186)
# ELF5 = target: T1, ELF5 (UniProt Q9UKW6-2)
# T1 sequence: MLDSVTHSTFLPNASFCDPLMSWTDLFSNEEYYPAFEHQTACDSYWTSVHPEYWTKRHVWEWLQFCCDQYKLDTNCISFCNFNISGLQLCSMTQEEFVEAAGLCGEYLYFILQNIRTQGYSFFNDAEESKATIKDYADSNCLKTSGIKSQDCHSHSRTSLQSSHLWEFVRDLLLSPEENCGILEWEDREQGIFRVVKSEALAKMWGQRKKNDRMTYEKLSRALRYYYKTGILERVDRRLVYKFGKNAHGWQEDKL
# FEV = target: T2, FEV (UniProt Q99581)
# T2 sequence: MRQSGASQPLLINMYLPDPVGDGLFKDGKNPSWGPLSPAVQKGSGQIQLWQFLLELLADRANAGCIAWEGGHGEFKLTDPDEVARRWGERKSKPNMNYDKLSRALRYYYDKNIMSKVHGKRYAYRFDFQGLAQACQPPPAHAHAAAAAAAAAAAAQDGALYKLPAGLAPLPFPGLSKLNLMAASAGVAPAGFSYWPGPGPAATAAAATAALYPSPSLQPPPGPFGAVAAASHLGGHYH
Sequence,binding signal (CRX),binding signal (ELF5),binding signal (FEV)
CCACTG,0.858,1.09,–
CGTCGC,0.857,1.19,–
CGATCA,1.16,0.959,–
TGCCCC,0.933,1.18,–
GCTGCA,0.772,0.904,–
GAAGCC,0.795,1.07,–
TGACTG,0.799,0.95,–
TATACG,1.39,1.35,–
CATGTA,0.903,0.993,–
CGGGCT,0.827,0.92,–
GGTAAC,0.716,1.02,–
CCGGCG,0.564,0.941,–
CCGACA,0.918,1.25,–
AATCCT,3.32,1.61,–
GCTAAC,0.945,0.925,–
CCTGCG,1.05,1.3,–
CGATGT,0.896,0.994,–
CATAAA,1.11,0.967,–
GGCGTT,0.801,0.921,–
GCCCTC,0.964,1.1,–
GAAACG,0.733,1.29,–
ACGGAA,0.763,2.24,–
ACCTCT,1.19,1.34,–
GCTTGG,0.969,0.965,–
CATAAC,0.98,1.15,–
TCCATT,1.35,1.2,–
ATGCCG,0.9,1.13,–

Sequence,binding signal (CRX),binding signal (ELF5),binding signal (FEV)
CACCGC,0.795,0.914,–
TGCGGA,0.815,1.46,–
GGACAT,0.739,1.24,–
AAGCTG,1.59,1.11,–
GCTCCG,1.07,1.25,–
ATTAGT,2.44,0.99,–
AGTATG,0.782,1.06,–
AGCAAA,1.05,1,–
GTGACT,0.729,0.906,0.977
ACCAAG,0.8,0.879,0.912
TAAGGC,1.52,0.953,0.899
GCCTGT,0.801,0.916,0.911
GTTGCT,1.06,1.27,1.18
TGGCGA,0.854,0.903,1.02
CCGGGT,0.566,1.55,–
CTACAG,0.912,1.08,–
TGTGGC,0.833,0.902,1.13
CTCGGG,0.937,0.95,0.909
CTGGTC,0.901,1.17,1.11
TTCTAT,1.67,1.3,–
TCTGGT,1.33,1.26,–
GTCCCC,0.862,1.13,–
AGCAAC,0.838,1.07,–
AGATTA,4.03,0.948,0.965
ACGCGA,0.881,0.862,0.858
GTAGAA,0.933,0.892,0.888
TAGGTA,1.22,0.935,1

# Pulled one by one from above (5):
Sequence,binding signal (CRX),binding signal (ELF5),binding signal (FEV)
TGTGGC,0.833,0.902,1.13
AGCAAC,0.838,1.07,–
ACGCGA,0.881,0.862,0.858
AGTATG,0.782,1.06,–
GTAGAA,0.933,0.892,0.888

# (next part)

Sequence,binding signal (CRX),binding signal (ELF5),binding signal (FEV)
CGAAGG,0.919,0.872,0.942
GTGGTA,0.785,0.89,0.909
GCGCGT,0.636,0.795,0.832
AGTTAT,0.89,0.919,0.841
TCTGAG,1.04,0.858,0.944
CGCTGG,0.825,0.965,–
GTTCAG,0.777,0.901,0.908
ACCACG,0.853,1.02,–
CCCAGA,0.972,0.886,0.853
ACCTTA,1.43,1.26,–
GACTTG,0.717,0.883,0.818
GCTTGT,0.988,1.05,1.02
AATCAG,1.42,1.04,–
TAGCGA,1.24,0.968,0.995
AATCGT,1.15,0.936,0.882
GAAAGC,0.872,0.879,0.893
CACCGA,0.879,1.04,–
TAGAGA,1.15,0.744,0.79
TCGCTG,0.856,0.942,0.976
TAGTCA,0.958,0.86,0.795
ACGCCA,0.721,0.864,0.92
CAATGA,0.801,0.922,0.983
CCCAAG,0.917,0.968,0.96
TGGTGG,0.789,0.986,0.974
TTTAGA,1.59,0.883,0.939
